From article PMC10202959 come the findings set out here.

Results are given in words; binding and its absence hold for the method and conditions named. Binding can be weak; no strength is given. Sequences can lack the tags named with a protein.

One test deals with human fibrinogen (human). Kind of test: ELISA; plates coated with 100 nM ECM protein in PBS; PDGF-BB or IL-1Ra variants at increasing concentrations in PBS-T with 0.1% BSA, 1 h at room temperature; detected with biotinylated antibodies; KD from a one site specific binding model; both purified.
Test [1] addresses human plasma fibronectin (human). Described as above.

B1: interleukin-1 receptor antagonist (IL-1Ra), wild type (ligand, UniProt P25085 27-178)
chain: RPSGKRPCKMQAFRIWDTNQKTFYLRNNQLIAGYLQGPNIKLEEKIDMVPIDLHSVFLGIHGGKLCLSCAKSGDDIKLQLEEVNITDLSKNKEEDKRFTFIRSEKGPTTSFESAACPGWFLCTTLEADRPVSLTNTPEEPLIVTKFYFQEDQ
With B1, the binding entry (in the test with human fibrinogen (human); in test [1]) was “binds” each time.
